Results on two substances are retold here after publication PMC6713736.

Sequences of proteins named here, by UniProt entry; tags and fusion partners are left off.
UniProt Q9HCM4: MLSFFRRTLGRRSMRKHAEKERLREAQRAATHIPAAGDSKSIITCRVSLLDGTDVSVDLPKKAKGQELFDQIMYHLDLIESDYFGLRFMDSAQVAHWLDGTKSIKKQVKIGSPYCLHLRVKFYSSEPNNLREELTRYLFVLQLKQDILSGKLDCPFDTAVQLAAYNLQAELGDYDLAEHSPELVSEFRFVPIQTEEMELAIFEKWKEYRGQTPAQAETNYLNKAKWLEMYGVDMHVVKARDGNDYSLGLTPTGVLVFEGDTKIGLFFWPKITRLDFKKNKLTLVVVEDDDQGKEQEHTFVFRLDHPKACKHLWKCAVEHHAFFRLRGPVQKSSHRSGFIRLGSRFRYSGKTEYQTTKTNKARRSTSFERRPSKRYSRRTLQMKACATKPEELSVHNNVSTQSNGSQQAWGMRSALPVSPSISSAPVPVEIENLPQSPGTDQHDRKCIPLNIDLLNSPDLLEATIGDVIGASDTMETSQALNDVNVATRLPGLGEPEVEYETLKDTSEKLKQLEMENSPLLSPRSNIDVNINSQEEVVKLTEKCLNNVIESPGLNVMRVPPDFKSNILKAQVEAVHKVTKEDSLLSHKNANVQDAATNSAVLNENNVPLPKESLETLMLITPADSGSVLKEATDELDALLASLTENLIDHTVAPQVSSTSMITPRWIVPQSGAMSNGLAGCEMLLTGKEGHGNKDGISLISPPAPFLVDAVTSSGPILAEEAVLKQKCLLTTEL
UniProt Q07157: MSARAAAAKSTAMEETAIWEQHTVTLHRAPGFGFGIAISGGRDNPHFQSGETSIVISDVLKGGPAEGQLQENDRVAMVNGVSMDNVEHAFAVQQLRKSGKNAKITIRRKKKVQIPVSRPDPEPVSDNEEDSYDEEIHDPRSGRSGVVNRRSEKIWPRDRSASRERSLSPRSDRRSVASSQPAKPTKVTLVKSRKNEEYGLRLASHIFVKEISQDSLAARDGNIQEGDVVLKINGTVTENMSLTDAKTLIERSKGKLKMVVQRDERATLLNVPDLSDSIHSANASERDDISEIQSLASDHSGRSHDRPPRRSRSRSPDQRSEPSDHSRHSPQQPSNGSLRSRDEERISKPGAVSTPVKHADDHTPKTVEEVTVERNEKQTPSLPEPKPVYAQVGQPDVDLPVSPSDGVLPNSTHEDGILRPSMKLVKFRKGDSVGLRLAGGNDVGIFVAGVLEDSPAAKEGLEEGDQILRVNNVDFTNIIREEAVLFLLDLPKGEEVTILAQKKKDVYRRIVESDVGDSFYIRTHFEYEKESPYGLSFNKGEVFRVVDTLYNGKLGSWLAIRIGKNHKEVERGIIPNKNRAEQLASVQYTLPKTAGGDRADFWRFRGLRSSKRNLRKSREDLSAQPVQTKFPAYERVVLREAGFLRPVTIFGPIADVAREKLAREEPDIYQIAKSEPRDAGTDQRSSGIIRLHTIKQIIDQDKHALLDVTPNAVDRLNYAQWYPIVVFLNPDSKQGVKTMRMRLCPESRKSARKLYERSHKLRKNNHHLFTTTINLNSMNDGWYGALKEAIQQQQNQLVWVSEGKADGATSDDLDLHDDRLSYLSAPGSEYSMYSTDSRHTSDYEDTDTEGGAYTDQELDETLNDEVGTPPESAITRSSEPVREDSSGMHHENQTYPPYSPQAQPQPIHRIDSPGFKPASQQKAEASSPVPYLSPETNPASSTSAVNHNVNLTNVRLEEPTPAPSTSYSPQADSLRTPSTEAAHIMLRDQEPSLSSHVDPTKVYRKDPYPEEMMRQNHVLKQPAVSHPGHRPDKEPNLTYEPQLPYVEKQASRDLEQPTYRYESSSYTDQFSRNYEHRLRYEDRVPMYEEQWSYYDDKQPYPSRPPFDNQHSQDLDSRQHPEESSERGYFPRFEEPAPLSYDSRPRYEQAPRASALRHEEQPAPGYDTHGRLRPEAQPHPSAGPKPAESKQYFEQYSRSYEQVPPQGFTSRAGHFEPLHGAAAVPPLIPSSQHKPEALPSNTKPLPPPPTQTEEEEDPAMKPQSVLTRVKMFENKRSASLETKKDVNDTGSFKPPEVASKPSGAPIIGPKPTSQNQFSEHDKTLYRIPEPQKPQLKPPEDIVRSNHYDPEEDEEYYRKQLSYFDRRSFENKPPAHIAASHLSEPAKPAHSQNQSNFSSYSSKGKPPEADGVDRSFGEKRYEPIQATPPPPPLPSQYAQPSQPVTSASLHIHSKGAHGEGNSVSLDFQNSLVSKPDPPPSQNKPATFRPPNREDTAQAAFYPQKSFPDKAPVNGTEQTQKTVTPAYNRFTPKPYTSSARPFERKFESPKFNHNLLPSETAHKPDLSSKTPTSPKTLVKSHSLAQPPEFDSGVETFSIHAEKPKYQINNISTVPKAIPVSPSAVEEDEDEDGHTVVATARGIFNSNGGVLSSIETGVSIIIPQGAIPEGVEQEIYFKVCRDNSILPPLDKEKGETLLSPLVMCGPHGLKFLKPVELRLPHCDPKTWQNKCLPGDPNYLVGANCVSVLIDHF
UniProt Q9UDY2: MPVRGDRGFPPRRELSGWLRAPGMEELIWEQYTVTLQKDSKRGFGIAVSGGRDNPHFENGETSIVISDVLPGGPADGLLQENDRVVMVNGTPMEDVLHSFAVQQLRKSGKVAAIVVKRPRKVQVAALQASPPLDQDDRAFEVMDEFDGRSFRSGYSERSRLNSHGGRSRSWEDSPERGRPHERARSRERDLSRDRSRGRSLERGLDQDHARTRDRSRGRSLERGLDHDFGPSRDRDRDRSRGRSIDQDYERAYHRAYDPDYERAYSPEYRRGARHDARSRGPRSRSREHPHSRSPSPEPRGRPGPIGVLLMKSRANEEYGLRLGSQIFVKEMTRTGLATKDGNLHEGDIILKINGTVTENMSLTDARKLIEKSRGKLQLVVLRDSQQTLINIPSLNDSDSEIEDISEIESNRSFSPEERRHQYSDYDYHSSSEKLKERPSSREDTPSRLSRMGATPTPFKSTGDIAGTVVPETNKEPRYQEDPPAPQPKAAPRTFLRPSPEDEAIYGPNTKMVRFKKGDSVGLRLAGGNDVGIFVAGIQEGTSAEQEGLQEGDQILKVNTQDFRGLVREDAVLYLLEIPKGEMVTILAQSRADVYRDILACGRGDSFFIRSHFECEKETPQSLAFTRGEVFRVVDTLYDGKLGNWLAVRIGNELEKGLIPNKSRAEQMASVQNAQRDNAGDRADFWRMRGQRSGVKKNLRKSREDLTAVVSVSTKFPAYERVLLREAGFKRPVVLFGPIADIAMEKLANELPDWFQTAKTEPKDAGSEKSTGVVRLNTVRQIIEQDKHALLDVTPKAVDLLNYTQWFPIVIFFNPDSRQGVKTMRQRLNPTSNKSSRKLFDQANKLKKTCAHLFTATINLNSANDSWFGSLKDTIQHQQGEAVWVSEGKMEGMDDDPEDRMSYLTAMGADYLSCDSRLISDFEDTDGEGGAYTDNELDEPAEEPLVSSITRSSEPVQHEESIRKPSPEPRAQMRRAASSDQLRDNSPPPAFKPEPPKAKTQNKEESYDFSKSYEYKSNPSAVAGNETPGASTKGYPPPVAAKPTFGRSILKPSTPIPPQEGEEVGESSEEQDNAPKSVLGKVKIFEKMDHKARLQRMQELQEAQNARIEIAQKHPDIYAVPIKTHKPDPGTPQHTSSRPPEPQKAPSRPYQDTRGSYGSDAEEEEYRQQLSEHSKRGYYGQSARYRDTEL

This assay deals with FLAG-EPB41L5 full length (human) (UniProt Q9HCM4). Briefly: affinity purification with mass spectrometry; immuno-affinity purification of FLAG-EPB41L5 from stably expressing HEK293T cells; trypsin digestion, mass spectrometry.

These are yes or no findings as the source states them, for the method shown. Binding seen in cells or lysates may run through a third protein. A yes stands for co-enrichment or nearness to the bait. Other partners may have been found.

As for ZO1 (from UniProt Q07157 1-1748), the binding result is recorded as “binds”.
In the case of ZO2 (from UniProt Q9UDY2 1-1190), the binding entry was “binds”.
